# Source: PubChem BioAssay AID493082 (Broad Institute, 2011)
# Listed are the inconclusive results; actives and inactives stand elsewhere.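 How the source made its calls: active means compounds whose fitted half-maximal growth inhibition concentration is at most ten times the top valid dose; inconclusive means flat curve with 30 to 70% inhibition, or poor fit; inactive means the rest.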
# Assay: antifungal activity on resistant C. albicans strain – Alamar Blue, 48 h, dry powder, dose response (AID 493082)
# Details: C. albicans CaCi-8 + fluconazole, Alamar Blue growth; at 26 µM (top of the series)
# Outline: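 Assay system – C. albicans CaCi-8, fluconazole-resistant clinical isolate · Medium – RPMI 1640 defined medium, MOPS, glucose, uridine · Also added – fluconazole 8 µg/mL · Schedule – 48 h static 37 °C compound exposure, 2 h Alamar Blue · Signal – Alamar Blue fluorescence, excitation 544 nm, emission 590 nm · Read-out – fungal growth or viability, lower signal indicating inhibition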
smiles,measurement,value
FC(F)(F)c1ccc(-c2n[nH]c3ccccc23)cc1,"activity change, negative = inhibition",inconclusive: -36.4%
